Laboratory results from article doi:10.1101/2022.04.06.487429.

Tested on: NagR (ROK family repressor)
Experiment: EMSA
Settings: 10 mM GlcN-6P does not disrupt complex (25 nM NagR)

“GCCGATATTTCATATATGTTAAGGACGTTGACAAAATATCTCCCGAGAC (double strand) [hmoA probe]”: binds.

The exact form of at least one protein or probe is not confirmed.
